Assay [1] deals with RNF168 (human (endogenous in HEK293)) (UniProt Q8IYW5). As to the kind of experiment: co-IP; RNF168 co-IP from nuclear fractions of HEK293 cells transfected with GFP-Q23 or GFP-Q74 and treated with 5 uM synthetic MIU1 peptide or DMSO (mock) for 24 h; eluates blotted for p62.
Assay [2] shares this target. As to the kind of experiment: co-IP; anti-RNF168 antibody cross-linked (BS3) to protein G Dynabeads; 150-200 ug nuclear extracts (soluble and insoluble nuclear fractions combined) of HEK293 cells transfected with GFP-Q23 or GFP-Q74; 2 h at 4 °C; washes in 1% and 0.2% NP-40 lysis buffer; eluates blotted for p62.

Results are given in words; binding and its absence hold for the method and conditions named. In cells and extracts the contact can be indirect. Some entries that bind do so weakly or less than the wild type.

In the case of p62/SQSTM1 (from UniProt Q13501 1-440), the binding result in assay [1] and in assay [2] was “binds” in each case.

Values taken from paper PMC8882575.
